These results are taken from PubChem BioAssay.

Chains of the proteins cited; added tags and fusions are not shown.
UniProt P42858, whole entry, looked up: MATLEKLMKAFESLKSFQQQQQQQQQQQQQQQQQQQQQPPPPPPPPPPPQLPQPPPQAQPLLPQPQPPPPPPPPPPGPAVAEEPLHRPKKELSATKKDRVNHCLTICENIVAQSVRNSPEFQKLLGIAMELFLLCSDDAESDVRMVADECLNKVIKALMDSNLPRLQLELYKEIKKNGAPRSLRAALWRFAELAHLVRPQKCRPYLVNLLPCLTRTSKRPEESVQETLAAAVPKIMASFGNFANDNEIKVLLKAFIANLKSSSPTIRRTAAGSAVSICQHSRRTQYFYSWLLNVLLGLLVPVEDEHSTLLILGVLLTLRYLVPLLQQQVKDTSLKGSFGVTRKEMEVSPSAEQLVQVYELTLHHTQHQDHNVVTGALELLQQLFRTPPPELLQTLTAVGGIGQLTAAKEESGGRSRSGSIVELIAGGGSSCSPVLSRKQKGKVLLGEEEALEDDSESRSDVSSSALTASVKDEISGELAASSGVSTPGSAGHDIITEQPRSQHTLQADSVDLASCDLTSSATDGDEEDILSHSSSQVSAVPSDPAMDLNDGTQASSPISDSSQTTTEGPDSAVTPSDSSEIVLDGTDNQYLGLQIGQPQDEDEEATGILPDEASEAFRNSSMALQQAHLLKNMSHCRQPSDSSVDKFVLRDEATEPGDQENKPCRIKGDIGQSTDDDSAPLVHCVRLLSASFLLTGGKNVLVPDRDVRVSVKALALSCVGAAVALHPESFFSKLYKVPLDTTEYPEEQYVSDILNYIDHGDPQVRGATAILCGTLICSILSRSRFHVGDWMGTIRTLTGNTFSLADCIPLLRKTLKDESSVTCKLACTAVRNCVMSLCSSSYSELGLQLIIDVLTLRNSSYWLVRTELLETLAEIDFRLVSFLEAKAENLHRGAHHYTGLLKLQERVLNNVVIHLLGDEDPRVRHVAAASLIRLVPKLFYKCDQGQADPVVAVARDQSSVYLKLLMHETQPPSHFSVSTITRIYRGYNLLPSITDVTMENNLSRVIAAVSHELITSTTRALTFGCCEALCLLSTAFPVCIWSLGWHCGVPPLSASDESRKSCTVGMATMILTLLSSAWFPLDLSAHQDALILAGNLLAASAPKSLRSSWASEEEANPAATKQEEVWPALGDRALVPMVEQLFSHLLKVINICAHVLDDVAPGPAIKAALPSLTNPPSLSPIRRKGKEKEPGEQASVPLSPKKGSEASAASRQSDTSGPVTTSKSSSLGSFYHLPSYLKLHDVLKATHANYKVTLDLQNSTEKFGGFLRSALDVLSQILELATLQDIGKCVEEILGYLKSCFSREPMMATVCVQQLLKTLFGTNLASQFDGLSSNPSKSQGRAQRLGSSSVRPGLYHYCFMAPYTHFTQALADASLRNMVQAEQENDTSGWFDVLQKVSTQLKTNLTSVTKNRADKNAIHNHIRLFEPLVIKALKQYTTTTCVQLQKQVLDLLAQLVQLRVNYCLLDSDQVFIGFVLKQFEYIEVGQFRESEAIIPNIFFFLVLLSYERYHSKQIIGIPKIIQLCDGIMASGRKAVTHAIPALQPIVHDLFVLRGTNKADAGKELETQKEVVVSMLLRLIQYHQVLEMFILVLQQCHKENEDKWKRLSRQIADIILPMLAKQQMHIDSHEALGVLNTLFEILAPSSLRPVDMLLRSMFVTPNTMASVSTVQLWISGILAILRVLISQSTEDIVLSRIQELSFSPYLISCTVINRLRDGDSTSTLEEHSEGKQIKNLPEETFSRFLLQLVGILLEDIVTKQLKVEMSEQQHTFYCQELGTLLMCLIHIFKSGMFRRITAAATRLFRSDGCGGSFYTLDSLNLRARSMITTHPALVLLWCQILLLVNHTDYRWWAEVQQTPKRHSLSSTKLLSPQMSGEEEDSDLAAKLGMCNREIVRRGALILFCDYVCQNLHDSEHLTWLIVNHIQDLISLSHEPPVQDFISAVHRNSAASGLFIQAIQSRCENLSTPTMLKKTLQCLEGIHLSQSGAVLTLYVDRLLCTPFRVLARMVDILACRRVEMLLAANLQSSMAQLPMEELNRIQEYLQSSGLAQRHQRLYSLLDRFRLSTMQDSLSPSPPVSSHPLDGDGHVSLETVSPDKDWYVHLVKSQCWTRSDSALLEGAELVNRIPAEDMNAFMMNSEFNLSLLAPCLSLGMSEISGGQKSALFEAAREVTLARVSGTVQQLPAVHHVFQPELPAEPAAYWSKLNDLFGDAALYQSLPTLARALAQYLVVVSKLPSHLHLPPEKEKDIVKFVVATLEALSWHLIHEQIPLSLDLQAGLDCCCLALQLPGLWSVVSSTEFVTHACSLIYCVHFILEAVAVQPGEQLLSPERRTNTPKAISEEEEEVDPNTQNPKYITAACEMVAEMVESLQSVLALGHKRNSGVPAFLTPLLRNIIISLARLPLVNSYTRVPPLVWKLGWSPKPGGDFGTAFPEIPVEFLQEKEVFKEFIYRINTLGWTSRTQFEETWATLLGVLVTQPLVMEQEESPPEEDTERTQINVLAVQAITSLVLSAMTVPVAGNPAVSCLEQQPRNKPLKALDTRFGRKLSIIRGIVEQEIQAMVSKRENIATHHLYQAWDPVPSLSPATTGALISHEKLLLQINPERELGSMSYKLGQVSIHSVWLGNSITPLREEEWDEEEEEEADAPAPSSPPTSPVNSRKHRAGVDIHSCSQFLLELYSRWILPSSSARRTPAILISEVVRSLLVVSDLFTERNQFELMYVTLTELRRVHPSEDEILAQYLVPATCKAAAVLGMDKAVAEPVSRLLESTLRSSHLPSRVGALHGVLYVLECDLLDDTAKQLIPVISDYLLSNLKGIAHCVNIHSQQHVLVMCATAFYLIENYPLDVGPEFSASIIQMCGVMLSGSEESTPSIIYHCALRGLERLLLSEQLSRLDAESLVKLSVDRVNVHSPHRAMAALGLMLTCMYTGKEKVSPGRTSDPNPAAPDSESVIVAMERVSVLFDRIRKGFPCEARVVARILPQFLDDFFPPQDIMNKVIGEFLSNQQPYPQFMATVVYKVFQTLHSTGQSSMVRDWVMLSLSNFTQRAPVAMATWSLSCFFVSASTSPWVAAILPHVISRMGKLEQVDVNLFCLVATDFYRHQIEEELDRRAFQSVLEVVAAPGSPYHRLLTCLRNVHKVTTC

Some of the results follow. Shown are side measurements of this screen, not its main read-out; they come without a call. For some of these results: The list favours compounds with an active or inconclusive main result.

One experiment is described as follows: PubChem AID 1586. The following applies: yeast two-hybrid polyglutamine protein interaction, reporter readout; measured here: averaged growth delta OD.
Experiment [1] can be described thus: enhancers of SMN2 over SMN1 splicing, cell-based, SMN2/SMN1 luciferase reporters (AID 1598). Conditions: SMN2 vs SMN1 luciferase splicing reporter cells, at 10 µM; SMN1 luciferase ratio: measured here: SMN1 luciferase reporter average; SMN2 luciferase ratio: measured here: SMN2 luciferase reporter average, stronger effect = higher value. Background: Reporter assays use an easily measured gene product as a stand-in for the process of interest.

The nature of experiment [2]: protection against mutant huntingtin cytotoxicity, PC12 cells, LDH release (AID 1610). The following applies: PC12 mutant huntingtin toxicity, final LDH at 4 uM, stronger effect = lower value. Background: LDH leaks from cells whose membrane has failed.
Experiment [3] concerns the target Huntingtin (Homo sapiens) (UniProt P42858). The experiment is described as follows: inhibitors of mutant Htt aggregation in vitro, dose response, QA1 (AID 1584). The following applies: in vitro mutant huntingtin aggregation assay; confirmation test; at 10 µM; stronger effect = lower value.

`CCCCCc1cc(O)c2c(c1)OC(C)(C)C1CCC(C)=CC21` (stereo not given) came in with a signal change (36 h minus 0 h) in “PubChem AID 1586” of 0.29. For the same compound, in experiment [1], the SMN1 luciferase ratio was determined as 0.96 and the SMN2 luciferase ratio was found to be 0.92.
`O=[N+]([O-])O[C@H]1CO[C@H]2[C@@H]1OC[C@H]2O[N+](=O)[O-]` gave a signal change (36 h minus 0 h) in “PubChem AID 1586” of 0.0837. In addition, in experiment [1], the SMN1 luciferase ratio came out at 0.85 and the SMN2 luciferase ratio amounted to 0.86. In experiment [2], this compound registered a normalised LDH release of 1.04.
In the case of `CCCCC[C@H]1C(=O)O[C@H](C)[C@H](NC(=O)c2cccc(NC=O)c2O)C(=O)O[C@@H](C)[C@@H]1OC(=O)CC(C)C`, the aggregation ratio in experiment [3] was 1.04. Moreover, the signal change (36 h minus 0 h) in “PubChem AID 1586” was -0.201. For the same compound, in experiment [1], the SMN1 luciferase ratio was 0.32 and the SMN2 luciferase ratio is 0.34. Further, in experiment [2], the normalised LDH release was 0.406.
With `CC(C)[N+](C)(CCC(C(N)=O)(c1ccccc1)c1ccccc1)C(C)C`, in “PubChem AID 1586”, the signal change (36 h minus 0 h) was determined as 0.0793. For the same compound, in experiment [1], the SMN1 luciferase ratio stood at 0.94 and the SMN2 luciferase ratio is 0.95. The same compound yielded a normalised LDH release in experiment [2] of 0.234.
Turning to `CCC1(c2ccc(N)cc2)CCC(=O)NC1=O` (stereo not given), the aggregation ratio in experiment [3] turned out to be 0.999. Moreover, in “PubChem AID 1586”, the signal change (36 h minus 0 h) was found to be 0.421. Also, in experiment [1], the SMN1 luciferase ratio worked out at 0.93 and the SMN2 luciferase ratio worked out at 0.92. For the same compound, the normalised LDH release in experiment [2] worked out at 1.03.
Consider `CCCCCc1cc(O)c2c(c1)OC(C)(C)c1ccc(C)cc1-2`, for which the signal change (36 h minus 0 h) in the experiment “PubChem AID 1586” is 0.385. Further, in experiment [1], the SMN1 luciferase ratio was determined as 0.85 and the SMN2 luciferase ratio is 0.79.
In the same order, the values of `CCCCCc1cc(O)c2c(c1)OC(C)(C)C1CC=C(C)CC21` (stereo not given) are 0.284, 0.95 and 1.02.
For the compound `NCCc1cc(O)c(O)cc1O`, in experiment [3], the aggregation ratio worked out at 1.04. Also, the signal change (36 h minus 0 h) in “PubChem AID 1586” was 0.194. For the same compound, in experiment [1], the SMN1 luciferase ratio was 0.86 and the SMN2 luciferase ratio was 0.83. The compound also gave a normalised LDH release in experiment [2] of 0.925.
`Oc1cccc2cccnc12` displayed a signal change (36 h minus 0 h) in the experiment “PubChem AID 1586” of 0.0959. Also, in experiment [1], the SMN1 luciferase ratio was found to be 0.52 and the SMN2 luciferase ratio stood at 0.53.
Consider `ClC1=C(Cl)C2(Cl)C3C4CC(C5OC45)C3C1(Cl)C2(Cl)Cl` (stereo not given), for which the aggregation ratio in experiment [3] came out at 0.99. For the same compound, in “PubChem AID 1586”, the signal change (36 h minus 0 h) worked out at 0.0853. Besides, in experiment [1], the SMN1 luciferase ratio was 0.92 and the SMN2 luciferase ratio was 1.08. The normalised LDH release in experiment [2] stood at 0.818.
For the compound `O=P1(N(CCCl)CCCl)NCCCO1` (stereo not given), the signal change (36 h minus 0 h) in the experiment “PubChem AID 1586” was 0.159. Besides, in experiment [1], the SMN1 luciferase ratio stood at 0.92 and the SMN2 luciferase ratio stood at 0.87. Also, the normalised LDH release in experiment [2] amounted to 1.02.
The matching figures for `CC(N)Cc1ccccc1` (stereo not given): 0.558, 1.16, 1.23 and 0.78.
On to `O=C(O)c1ccccc1-c1c2cc(Br)c(=O)cc-2oc2[c]([Hg])c(O)c(Br)cc12`, for which the aggregation ratio in experiment [3] was found to be 0.814. In “PubChem AID 1586”, the signal change (36 h minus 0 h) is -0.00595. For the same compound, in experiment [1], the SMN1 luciferase ratio is 0.95 and the SMN2 luciferase ratio amounted to 0.99. This compound showed a normalised LDH release in experiment [2] of 0.59.
The compound `CC(=O)Oc1ccc(Cl)c2cccnc12` showed a signal change (36 h minus 0 h) in “PubChem AID 1586” of 0.158. In experiment [1], the SMN1 luciferase ratio is 0.83 and the SMN2 luciferase ratio came to 0.89.
As to `O=c1ccc2cc(O[C@@H]3O[C@H](CO)[C@@H](O)[C@H](O)[C@H]3O)c(O)cc2o1`, the signal change (36 h minus 0 h) in the experiment “PubChem AID 1586” was 0.0413. Moreover, in experiment [1], the SMN1 luciferase ratio was determined as 1 and the SMN2 luciferase ratio amounted to 1.03. In experiment [2], this compound returned a normalised LDH release of 1.33.
In the experiment “PubChem AID 1586”, `COc1ccc2c(c1OC)C(=O)O[C@H]2[C@H]1c2cc3c(cc2CCN1C)OCO3` gave a signal change (36 h minus 0 h) of 0.167. Moreover, in experiment [1], the SMN1 luciferase ratio was 0.87 and the SMN2 luciferase ratio turned out to be 0.88. Besides, the normalised LDH release in experiment [2] came out at 0.875.
With `CN(C)[C@@H]1C(=O)C(C(N)=O)=C(O)[C@@]2(O)C(=O)C3=C(O)c4c(O)cccc4[C@@](C)(O)[C@H]3[C@H](O)[C@@H]12`, the aggregation ratio in experiment [3] is 0.982. The signal change (36 h minus 0 h) in the experiment “PubChem AID 1586” came out at 0.129. In experiment [1], the SMN1 luciferase ratio came to 0.89 and the SMN2 luciferase ratio turned out to be 0.95.
`CN(C)C(=S)SSC(=S)N(C)C` showed a signal change (36 h minus 0 h) in the experiment “PubChem AID 1586” of 0.344. Further, in experiment [1], the SMN1 luciferase ratio worked out at 0.64 and the SMN2 luciferase ratio came to 0.39. Further, the normalised LDH release in experiment [2] was found to be 1.39.
Compound `O=C1Nc2ccc(Cl)cc2C(c2ccccc2)=NC1O` (stereo not given) showed a signal change (36 h minus 0 h) in the experiment “PubChem AID 1586” of 0.296. Besides, in experiment [1], the SMN1 luciferase ratio worked out at 0.97 and the SMN2 luciferase ratio stood at 1.11. The same compound yielded a normalised LDH release in experiment [2] of 1.05.
In the experiment “PubChem AID 1586”, `O=c1c2ccccc2[se]n1-c1ccccc1` showed a signal change (36 h minus 0 h) of 0.142. Further, in experiment [1], the SMN1 luciferase ratio was determined as 1.06 and the SMN2 luciferase ratio was found to be 0.91.
As for `CNc1ccc2oc(C[C@@H]3OC4(CC[C@@H]3C)O[C@H](C(C)C(=O)c3ccc[nH]3)[C@H](C)C[C@H]4C)nc2c1C(=O)O` (stereo not given in full), in experiment [3], the aggregation ratio is 0.897. In “PubChem AID 1586”, this compound showed a signal change (36 h minus 0 h) of 0.0676. Moreover, in experiment [1], the SMN1 luciferase ratio stood at 0.78 and the SMN2 luciferase ratio is 0.89.
For the compound `O=c1[nH]c2ccccc2n1C1CCN(CCCC(c2ccc(F)cc2)c2ccc(F)cc2)CC1`, the aggregation ratio in experiment [3] was 1.03. Moreover, in “PubChem AID 1586”, the signal change (36 h minus 0 h) is 0.0898. In addition, in experiment [1], the SMN1 luciferase ratio was found to be 0.92 and the SMN2 luciferase ratio came to 0.92.
The compound `C[C@@H]1C[C@@H]([C@H](O)CC2CC(=O)NC(=O)C2)C(=O)[C@@H](C)C1` displayed a signal change (36 h minus 0 h) in “PubChem AID 1586” of 0.0209. In addition, in experiment [1], the SMN1 luciferase ratio stood at 0.28 and the SMN2 luciferase ratio is 0.42.
`CO[C@@H]1C[C@@H](C[C@H]2CC[C@H](C)[C@H]([C@@H](C)C(=O)O)O2)O[C@]2(O[C@](C)([C@H]3CC[C@@](C)(C4O[C@@H](C5O[C@@](O)(CO)[C@H](C)C[C@@H]5C)C[C@@H]4C)O3)C[C@H]2C)[C@@H]1C` (stereo not given in full): the signal change (36 h minus 0 h) in the experiment “PubChem AID 1586” is -0.0153. In addition, in experiment [1], the SMN1 luciferase ratio was found to be 0.41 and the SMN2 luciferase ratio stood at 0.54.
`COC12CC[C@@]3(C[C@@H]1C(C)(O)C(C)(C)C)[C@H]1Cc4ccc(O)c5c4[C@@]3(CCN1CC1CC1)[C@H]2O5` (stereo not given in full) showed a signal change (36 h minus 0 h) in the experiment “PubChem AID 1586” of 0.169. For the same compound, in experiment [1], the SMN1 luciferase ratio was found to be 0.91 and the SMN2 luciferase ratio came to 0.93.
The compound `CC(C)N(CCC(C(N)=O)(c1ccccc1)c1ccccn1)C(C)C` (stereo not given) returned a signal change (36 h minus 0 h) in the experiment “PubChem AID 1586” of 0.145. In experiment [1], the SMN1 luciferase ratio was 0.92 and the SMN2 luciferase ratio came out at 0.88. Also, the normalised LDH release in experiment [2] came out at 1.14.
With `O=C1C=C2C(=CCOC2O)O1` (stereo not given), in “PubChem AID 1586”, the signal change (36 h minus 0 h) came out at 0.119.
Turning to `C[C@@]1(C(=O)O)CC[C@]2(C)CC[C@]3(C)C4=CC=C5C=C(O)C(=O)C=C5[C@]4(C)CC[C@@]3(C)[C@@H]2C1`, the signal change (36 h minus 0 h) in “PubChem AID 1586” was 0.0245. For the same compound, in experiment [1], the SMN1 luciferase ratio came to 0.05 and the SMN2 luciferase ratio came out at 0.09.
The compound `C=C[C@H]1CN2CC[C@H]1C[C@@H]2[C@H](O)c1ccnc2ccccc12` came in with a signal change (36 h minus 0 h) in the experiment “PubChem AID 1586” of 0.0862. In experiment [1], the SMN1 luciferase ratio was found to be 0.83 and the SMN2 luciferase ratio was found to be 0.84.
The matching figures for `CC[n+]1c(-c2ccccc2)c2cc(N)ccc2c2ccc(N)cc21`: 0.0381, 0.3 and 0.42.
As for `CC1[C@H](C)OC(=O)CC(O)CC(O)CC(O)CCC(O)C(O)C[C@]2(O)CC(O)C(C(=O)O)C(CC(OC3O[C@H](C)[C@@H](O)[C@H](N)[C@@H]3O)/C=C/C=C/C=C/C=C/CC/C=C/C=C/[C@H](C)[C@H]1O)O2` (stereo not given in full), the signal change (36 h minus 0 h) in the experiment “PubChem AID 1586” is -0.331. Further, in experiment [1], the SMN1 luciferase ratio worked out at 0.95 and the SMN2 luciferase ratio was determined as 1.04. Moreover, the normalised LDH release in experiment [2] was 1.04.
`CC(N)C(O)c1ccccc1` (stereo not given): the signal change (36 h minus 0 h) in the experiment “PubChem AID 1586” came to 0.142. Further, in experiment [1], the SMN1 luciferase ratio was determined as 0.96 and the SMN2 luciferase ratio was 0.93. The compound also yielded a normalised LDH release in experiment [2] of 0.761.
In the case of `CC[C@H]1C(=O)OC[C@@H]1Cc1cccn1C`, the aggregation ratio in experiment [3] amounted to 1. For the same compound, the signal change (36 h minus 0 h) in “PubChem AID 1586” came to 0.0609. Also, in experiment [1], the SMN1 luciferase ratio is 0.99 and the SMN2 luciferase ratio was 0.86. In addition, the normalised LDH release in experiment [2] turned out to be 0.957.
In the case of `NCCc1c[nH]c2ccccc12`, the signal change (36 h minus 0 h) in “PubChem AID 1586” was determined as 0.164. Also, in experiment [1], the SMN1 luciferase ratio stood at 0.9 and the SMN2 luciferase ratio is 0.9. In experiment [2], this compound showed a normalised LDH release of 0.908.
The compound `CC(C)=CCCC1(C)C=Cc2c(O)c3c(c(CC=C(C)C)c2O1)OC12C(=CC4CC1C(C)(C)OC2(C/C=C(/C)C(=O)O)C4=O)C3=O` (stereo not given) yielded a signal change (36 h minus 0 h) in the experiment “PubChem AID 1586” of 0.264. Moreover, in experiment [1], the SMN1 luciferase ratio came out at 0.37 and the SMN2 luciferase ratio was determined as 0.52.
